Measurements from publication PMC6051998.
No constants are given. Whether binding was seen depends on the method and setting. Some binding calls cover weakened binding; strength is not graded here. For some assays here: Where a sequence is shown, tags or fusion partners need not be part of it.

Key:
[1] = molecular target: full-length Dyn1 (dynamin 1) (UniProt Q05193); experiment: negative-stain EM; Dyn1 (2 μM final) incubated with 10 mol% PIP2-containing NT (50 μM total lipid) in the absence and presence of the isolated Dyn1 PH domain (150 μM); both purified
[2] = molecular target: Dyn1 PH domain (isolated, untagged) (UniProt Q05193); experiment: dynamic light scattering; untagged protein at 90 μM, 50 μl, room temperature, Dynapro Nanostar; both purified

Row | binding [1] | binding [2] | Binder
1 | binds |  | full-length Dyn1 (dynamin 1) (protein, UniProt Q05193 1-864) MGNRGMEDLIPLVNRLQDAFSAIGQNADLDLPQIAVVGGQSAGKSSVLENFVGRDFLPRGSGIVTRRPLVLQLVNATTEYAEFLHCKGKKFTDFEEVRLEIEAETDRVTGTNKGISPVPINLRVYSPHVLNLTLVDLPGMTKVPVGDQPPDIEFQIRDMLMQFVTKENCLILAVSPANSDLANSDALKVAKEVDPQGQRTIGVITKLDLMDEGTDARDVLENKLLPLRRGYIGVVNRSQKDIDGKKDITAALAAERKFFLSHPSYRHLADRMGTPYLQKVLNQQLTNHIRDTLPGLRNKLQSQLLSIEKEVEEYKNFRPDDPARKTKALLQMVQQFAVDFEKRIEGSGDQIDTYELSGGARINRIFHERFPFELVKMEFDEKELRREISYAIKNIHGIRTGLFTPDMAFETIVKKQVKKIREPCLKCVDMVISELISTVRQCTKKLQQYPRLREEMERIVTTHIREREGRTKEQVMLLIDIELAYMNTNHEDFIGFANAQQRSNQMNKKKTSGNQDEILVIRKGWLTINNIGIMKGGSKEYWFVLTAENLSWYKDDEEKEKKYMLSVDNLKLRDVEKGFMSSKHIFALFNTEQRNVYKDYRQLELACETQEEVDSWKASFLRAGVYPERVGDKEKASETEENGSDSFMHSMDPQLERQVETIRNLVDSYMAIVNKTVRDLMPKTIMHLMINNTKEFIFSELLANLYSCGDQNTLMEESAEQAQRRDEMLRMYHALKEALSIIGDINTTTVSTPMPPPVDDSWLQVQSVPAGRRSPTSSPTPQRRAPAVPPARPGSRGPAPGPPPAGSALGGAPPVPSRPGASPDPFGPPPQVPSRPNRAPPGVPSRSGQASPSRPESPRPPFDL
2 |  | no binding (tested: 90 μM) | Dyn1 PH domain (isolated, untagged) (domain or fragment, UniProt Q05193 519-625) LVIRKGWLTINNIGIMKGGSKEYWFVLTAENLSWYKDDEEKEKKYMLSVDNLKLRDVEKGFMSSKHIFALFNTEQRNVYKDYRQLELACETQEEVDSWKASFLRAGV
